Assay results reported in patent US20180273604A1 (ALBERT EINSTEIN COLLEGE OF MEDICINE, published 2018).
No constants are given. Whether binding was seen depends on the method and setting. Some binding calls cover weakened binding; strength is not graded here. Values belong to the molecule of their own block, whether it stands above or below them.

The chains behind the UniProt entries cited, without tags or fusion partners. Where a name states a change or a piece, a line headed by the entry shows the natural chain unless it says otherwise. Residues count along the entry.
UniProt P10586, residues 30-1907: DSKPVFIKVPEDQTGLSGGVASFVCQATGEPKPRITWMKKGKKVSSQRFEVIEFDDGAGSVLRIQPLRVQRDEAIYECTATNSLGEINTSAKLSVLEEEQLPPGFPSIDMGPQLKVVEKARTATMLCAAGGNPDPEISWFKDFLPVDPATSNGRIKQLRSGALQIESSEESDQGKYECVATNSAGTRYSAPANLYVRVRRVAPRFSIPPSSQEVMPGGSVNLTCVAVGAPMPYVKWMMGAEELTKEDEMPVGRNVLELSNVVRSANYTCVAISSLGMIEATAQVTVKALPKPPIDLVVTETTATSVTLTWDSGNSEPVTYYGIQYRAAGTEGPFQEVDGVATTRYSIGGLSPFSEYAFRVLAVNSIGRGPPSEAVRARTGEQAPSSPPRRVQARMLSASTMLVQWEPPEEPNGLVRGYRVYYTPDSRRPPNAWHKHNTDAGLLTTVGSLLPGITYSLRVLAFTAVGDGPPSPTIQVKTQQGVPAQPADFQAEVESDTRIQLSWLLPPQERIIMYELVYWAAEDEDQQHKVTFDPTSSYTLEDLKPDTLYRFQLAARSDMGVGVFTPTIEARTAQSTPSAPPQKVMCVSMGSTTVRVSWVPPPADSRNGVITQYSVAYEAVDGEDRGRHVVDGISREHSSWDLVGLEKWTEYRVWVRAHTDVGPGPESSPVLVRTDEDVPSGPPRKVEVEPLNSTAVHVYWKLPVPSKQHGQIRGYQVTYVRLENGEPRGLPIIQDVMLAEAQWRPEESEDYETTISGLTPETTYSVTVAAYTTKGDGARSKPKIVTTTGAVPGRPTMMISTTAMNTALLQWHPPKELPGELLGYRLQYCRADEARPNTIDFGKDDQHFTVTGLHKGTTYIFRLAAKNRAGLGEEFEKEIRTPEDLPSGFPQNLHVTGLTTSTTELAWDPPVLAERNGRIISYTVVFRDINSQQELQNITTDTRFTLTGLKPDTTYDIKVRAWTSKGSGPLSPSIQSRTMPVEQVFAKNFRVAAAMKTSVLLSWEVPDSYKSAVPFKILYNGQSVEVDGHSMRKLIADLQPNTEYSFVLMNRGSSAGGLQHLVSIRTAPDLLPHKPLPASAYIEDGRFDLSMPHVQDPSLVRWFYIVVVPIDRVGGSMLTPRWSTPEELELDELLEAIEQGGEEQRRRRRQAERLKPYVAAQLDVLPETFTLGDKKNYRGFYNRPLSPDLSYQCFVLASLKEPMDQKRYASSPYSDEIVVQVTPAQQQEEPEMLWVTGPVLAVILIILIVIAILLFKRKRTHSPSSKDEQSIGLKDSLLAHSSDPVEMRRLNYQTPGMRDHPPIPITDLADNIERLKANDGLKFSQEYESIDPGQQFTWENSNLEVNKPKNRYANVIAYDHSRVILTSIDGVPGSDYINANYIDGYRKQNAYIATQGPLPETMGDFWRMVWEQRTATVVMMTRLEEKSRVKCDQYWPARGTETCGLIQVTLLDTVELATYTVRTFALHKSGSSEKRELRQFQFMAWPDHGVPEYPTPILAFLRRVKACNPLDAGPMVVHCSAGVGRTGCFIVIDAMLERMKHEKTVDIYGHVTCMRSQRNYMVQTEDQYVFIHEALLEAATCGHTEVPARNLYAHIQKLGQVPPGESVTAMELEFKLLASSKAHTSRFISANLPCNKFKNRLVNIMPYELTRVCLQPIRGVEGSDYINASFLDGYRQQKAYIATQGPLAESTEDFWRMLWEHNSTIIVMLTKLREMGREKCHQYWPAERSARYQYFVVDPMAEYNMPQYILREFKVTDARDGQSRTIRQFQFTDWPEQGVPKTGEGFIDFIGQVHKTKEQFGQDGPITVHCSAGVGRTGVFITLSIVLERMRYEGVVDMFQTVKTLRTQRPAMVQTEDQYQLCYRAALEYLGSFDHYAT
UniProt P20333: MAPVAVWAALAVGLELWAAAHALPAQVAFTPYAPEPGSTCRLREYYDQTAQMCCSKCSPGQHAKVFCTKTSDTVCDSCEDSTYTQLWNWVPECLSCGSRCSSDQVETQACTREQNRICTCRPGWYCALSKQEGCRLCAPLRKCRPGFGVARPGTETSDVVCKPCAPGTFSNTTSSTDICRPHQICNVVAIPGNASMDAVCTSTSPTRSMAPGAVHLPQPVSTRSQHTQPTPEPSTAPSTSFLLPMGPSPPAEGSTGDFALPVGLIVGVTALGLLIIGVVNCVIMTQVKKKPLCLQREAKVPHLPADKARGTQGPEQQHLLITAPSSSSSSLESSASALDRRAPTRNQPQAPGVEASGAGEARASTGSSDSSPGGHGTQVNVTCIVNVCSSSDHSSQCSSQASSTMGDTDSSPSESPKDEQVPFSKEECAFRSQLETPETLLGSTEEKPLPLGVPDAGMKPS

Assays:
[1] = target: PTPR-F, human, expressed on cells (human) (UniProt P10586); assay: cell-cell FACS screen, NGFR query cells vs GFP library cells
[2] = target: Monkey ICOS-L (rhesus monkey, Macca mulatta), expressed on HEK 293 cells (rhesus monkey (Macca mulatta)); assay: cell-cell FACS binding assay, GFP vs mCherry HEK 293 cells
[3] = target: T1, ISLR2 (Immunoglobulin superfamily containing leucine-rich repeat protein 2), human, expressed on cells (human) (UniProt Q6UXK2); assay: cell-cell FACS screen, TNFR-1B-mCherry query cells vs GFP library cells
T1 sequence (looked up): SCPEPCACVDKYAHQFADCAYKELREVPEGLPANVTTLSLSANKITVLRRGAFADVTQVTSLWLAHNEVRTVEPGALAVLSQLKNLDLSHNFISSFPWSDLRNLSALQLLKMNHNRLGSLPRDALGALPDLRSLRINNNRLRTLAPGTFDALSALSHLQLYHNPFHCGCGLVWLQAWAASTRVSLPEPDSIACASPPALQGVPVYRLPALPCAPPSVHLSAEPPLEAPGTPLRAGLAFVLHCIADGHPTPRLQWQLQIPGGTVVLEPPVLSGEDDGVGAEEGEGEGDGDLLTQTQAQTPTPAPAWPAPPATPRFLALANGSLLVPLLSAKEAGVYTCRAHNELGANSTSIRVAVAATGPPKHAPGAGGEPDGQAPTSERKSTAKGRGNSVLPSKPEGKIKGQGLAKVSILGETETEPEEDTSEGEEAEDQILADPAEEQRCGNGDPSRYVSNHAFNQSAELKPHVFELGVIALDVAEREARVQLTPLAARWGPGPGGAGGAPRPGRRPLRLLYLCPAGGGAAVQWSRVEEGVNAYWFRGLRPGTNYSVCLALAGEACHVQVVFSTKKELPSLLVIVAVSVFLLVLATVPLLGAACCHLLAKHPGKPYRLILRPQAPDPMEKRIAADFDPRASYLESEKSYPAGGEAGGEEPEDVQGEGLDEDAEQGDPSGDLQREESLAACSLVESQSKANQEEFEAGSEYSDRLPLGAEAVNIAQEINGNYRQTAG

[4] = target: T1, ISLR2 (Immunoglobulin superfamily containing leucine-rich repeat protein 2), human, expressed on cells (human); assay: listed as newly discovered in this disclosure (cell-cell FACS screens)
[5] = target: T1, ISLR2 (Immunoglobulin superfamily containing leucine-rich repeat protein 2), human, expressed on cells (human); assay: cell-cell FACS screen of the ~400 member library
[6] = target: T1, ISLR2 (Immunoglobulin superfamily containing leucine-rich repeat protein 2), human, expressed on cells (human); assay: high-throughput cell-cell FACS screen
[7] = target: T2, ISLR, human, expressed on cells (human), O14498; assay: cell-cell FACS screen, NGFR query cells vs GFP library cells; details: remark: other sources report otherwise
T2 chain: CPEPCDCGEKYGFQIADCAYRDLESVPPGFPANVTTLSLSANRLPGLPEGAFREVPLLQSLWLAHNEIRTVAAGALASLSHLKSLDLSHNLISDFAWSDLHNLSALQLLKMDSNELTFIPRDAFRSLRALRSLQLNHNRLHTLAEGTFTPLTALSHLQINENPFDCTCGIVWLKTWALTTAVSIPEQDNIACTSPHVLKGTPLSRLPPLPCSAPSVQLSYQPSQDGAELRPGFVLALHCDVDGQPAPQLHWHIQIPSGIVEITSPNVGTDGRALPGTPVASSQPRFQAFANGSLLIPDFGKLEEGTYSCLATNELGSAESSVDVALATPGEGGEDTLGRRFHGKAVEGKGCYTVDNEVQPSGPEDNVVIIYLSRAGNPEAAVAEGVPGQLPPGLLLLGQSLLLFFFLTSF

[8] = target: T3, ISLR2 (Immunoglobulin superfamily containing leucine-rich repeat protein 2), human, expressed on cells (human), Q6UXK2; assay: cell-cell FACS screen of the ~400 member library; details: remark: other sources report otherwise
T3 chain: T1 sequence (looked up)

[9] = target: T3, ISLR2 (Immunoglobulin superfamily …); assay: listed as newly discovered in this disclosure (cell-cell FACS screens); details: remark: other sources report otherwise
[10] = target: T3, ISLR2 (Immunoglobulin superfamily …); assay: cell-cell FACS screen, B7-1 query cells vs GFP library cells; details: remark: other sources report otherwise

binding [1]: binds
Molecule: NGFR, human, expressed on cells (from UniProt P08138 29-427) (receptor)

binding [2]: binds | binding [3]: binds | binding [4]: binds | binding [5]: binds | binding [6]: binds
Molecule: tumor necrosis factor receptor 1B (TNFR-1B), human, expressed on HEK 293 cells (from UniProt P20333 23-461)

binding [7]: binds
B1: NGFR, human, expressed on cells, P08138 29-427 (receptor, UniProt P08138 29-427, looked up)
chain: KEACPTGLYTHSGECCKACNLGEGVAQPCGANQTVCEPCLDSVTFSDVVSATEPCKPCTECVGLQSMSAPCVEADDAVCRCAYGYYQDETTGRCEACRVCEAGSGLVFSCQDKQNTVCEECPDGTYSDEANHVDPCLPCTVCEDTERQLRECTRWADAECEEIPGRWITRSTPPEGSDSTAPSTQEPEAPPEQDLIASTVAGVVTTVMGSSQPVVTRGTTDNLIPVYCSILAAVVVGLVAYIAFKRWNSCKQNKQGANSRPVNQTPPPEGEKLHSDSGISVDSQSLHDQQPHTQTASGQALKGDGGLYSSLPPAKREEVEKLLNGSAGDTWRHLAGELGYQPEHIDSFTHEACPVRALLASWATQDSATLDALLAALRRIQRADLVESLCSESTATSPV

binding [8]: binds | binding [9]: binds | binding [10]: binds
B2: B7-1, human, expressed on cells (ligand, UniProt P33681 35-288, looked up)
chain: VIHVTKEVKEVATLSCGHNVSVEELAQTRIYWQKEKKMVLTMMSGDMNIWPEYKNRTIFDITNNLSIVILALRPSDEGTYECVVLKYEKDAFKREHLAEVTLSVKADFPTPSISDFEIPTSNIRRIICSTSGGFPEPHLSWLENGEELNAINTTVSQDPETELYAVSSKLDFNMTTNHSFMCLIKYGHLRVNQTFNWNTTKQEHFPDNLLPSWAITLISVNGIFVICCLTYCFAPRCRERRRNERLRRESVRPV
notes: whole, on cells
